Consider one molecule from article PMC3530471.

This experiment deals with Mcl-1 (human (endogenous in M28)), Q07820. In words: co-IP; M28 spheroids untreated or treated with bortezomib (100 nM), vorinostat (5 uM) or both for 4 h; lysed in 1% CHAPS, 10 mM HEPES pH 7.4, 150 mM NaCl; Mcl-1 antibody (SC-189) on Sepharose Protein G, 4 C; immunoblot for Noxa and Bim. Conditions: remark: other sources report otherwise. (In western blotting, separated proteins are transferred to a membrane and probed.)

These are yes or no findings as the source states them, for the method shown. Binding seen in cells or lysates may run through a third protein. Some binding calls cover weakened binding; strength is not graded here.

B1: Noxa, Q13794 1-54 (protein)
chain: MPGKKARKNAQPSPARAPAELEVECATQLRRFGDKLNFRQKLLNLISKLFCSGT
Turning to B1, the binding entry is “binds”.
